Data reported in patent publication US5153308A, “S-sulfonated calcitonin derivatives” (Teijin Limited, priority 1988, dated 1992).
Not every detail of the peptide structures is certain; ends, links or a residue may be inferred. *1 amine or outer side, *2 acyl side, *3 side chain or, on linkers, in order; H or OH if unused. Where a SMILES comes first, the peptide text is derived from it. [ ]: non-standard residue; d: D form. X1 = O=C([C@H](CSS(=O)(=O)O)N[*:1])[*:2]

Key:
Wistar male rats = assay: Serum calcium lowering in rats after subcutaneous injection (OCPC method); format: in vivo, rat; settings: for Change in serum calcium level: average ± SD, 6 animals
[1] = Stability test in frozen state (residual amount by reverse HPLC); format: physicochemical; settings: 2.5 mM citrate (pH 2.8) buffer, frozen at -80° C., 5 months
Protocol: First, 50 μg each of the diS-sulfonated salmon calcitonin-I and salmon calcitonin-I were separately dissolved in 100 μl of 2.5 mM citrate (pH 2.8) buffer, and the solutions were frozen and stored at -80° C. After 5 months, the frozen samples were thawed, and residual diS-sulfonated salmon calcitonin-I and salmon calcitonin-I were measured by reverse HPLC.

[2] = Stability test in liquid form (residual amount by reverse HPLC); format: physicochemical; settings: 50 mM Tris-HCl buffer (pH 7.2), 37° C., after 2 weeks
Protocol: First, 50 μg each of the diS-sulfonated salmon calcitonin-I and salmon calcitonin-I were separately dissolved in 100 μl of 50 mM Tris-Hcl buffer solution (pH 7.2), and the solutions were stored at 37° C. After 2 weeks, the residual diS-sulfonated salmon calcitonin-I and salmon calcitonin-I were measured by reverse HPLC.

[3] = 31.25 ng/kg s.c., one hour after injection
[4] = 31.25 ng/kg s.c., two hours after injection
[5] = 62.5 ng/kg s.c., one hour after injection
[6] = 62.5 ng/kg s.c., two hours after injection
[7] = 125 ng/kg s.c., one hour after injection
[8] = 125 ng/kg s.c., two hours after injection
[9] = 250 ng/kg s.c., one hour after injection
[10] = 250 ng/kg s.c., two hours after injection

| SMILES | Change in serum calcium level (Wistar male rats; [3]) | Change in serum calcium level (Wistar male rats; [4]) | Change in serum calcium level (Wistar male rats; [5]) | Change in serum calcium level (Wistar male rats; [6]) | Change in serum calcium level (Wistar male rats; [7]) | Change in serum calcium level (Wistar male rats; [8]) | Change in serum calcium level (Wistar male rats; [9]) | Change in serum calcium level (Wistar male rats; [10]) | Effect on serum calcium level in comparison to PBS(-) control (Wistar male rats; dose of 125 ng/kg or more, one hour after injection) | Effect on serum calcium level in comparison to PBS(-) control (Wistar male rats; dose of 250 ng/kg, two hours after injection) | Decrease of serum calcium levels compared with salmon calcitonin (Wistar male rats; one and two hours after injection) | Residual amount [1] | Residual amount [2] |
| --- | --- | --- | --- | --- | --- | --- | --- | --- | --- | --- | --- | --- | --- |
| CC(C)C[C@H](NC(=O)[C@H](CCCCN)NC(=O)CNC(=O)[C@H](CC(C)C)NC(=O)[C@@H](NC(=O)[C@H](CSS(=O)(=O)O)NC(=O)[C@@H](NC(=O)[C@H](CO)NC(=O)[C@H](CC(C)C)NC(=O)[C@H](CC(N)=O)NC(=O)[C@H](CO)NC(=O)[C@@H](N)CSS(=O)(=O)O)[C@@H](C)O)C(C)C)C(=O)N[C@@H](CO)C(=O)N[C@@H](CCC(N)=O)C(=O)N[C@@H](CCC(=O)O)C(=O)N[C@@H](CC(C)C)C(=O)N[C@@H](Cc1c[nH]cn1)C(=O)N[C@@H](CCCCN)C(=O)N[C@@H](CC(C)C)C(=O)N[C@@H](CCC(N)=O)C(=O)N[C@H](C(=O)N[C@@H](Cc1ccc(O)cc1)C(=O)N1CCC[C@H]1C(=O)N[C@@H](CCCNC(=N)N)C(=O)N[C@H](C(=O)N[C@@H](CC(N)=O)C(=O)N[C@H](C(=O)NCC(=O)N[C@@H](CO)C(=O)NCC(=O)N[C@H](C(=O)N1CCC[C@H]1C(N)=O)[C@@H](C)O)[C@@H](C)O)[C@@H](C)O)[C@@H](C)O [diS-sulfonated salmon calcitonin-I] (H-[X1]SNLST[X1]VLGKLSQELHKLQTYPRTNTGSGTP-NH2) | 9.39 ± 0.28 mg/100 ml | 9.58 ± 0.19 mg/100 ml | 8.89 ± 0.13 mg/100 ml | 9.36 ± 0.45 mg/100 ml | 7.86 ± 0.18 mg/100 ml | 9.62 ± 0.12 mg/100 ml | 7.35 ± 0.16 mg/100 ml | 7.49 ± 0.24 mg/100 ml | significantly decreased the serum calcium level | significantly decreased the serum calcium level | substantially equivalent | > 99.5% | 92.1% |
| CC(C)C[C@H](NC(=O)[C@H](CCCCN)NC(=O)CNC(=O)[C@H](CC(C)C)NC(=O)[C@@H](NC(=O)[C@@H]1CSSC[C@H](N)C(=O)N[C@@H](CO)C(=O)N[C@@H](CC(N)=O)C(=O)N[C@@H](CC(C)C)C(=O)N[C@@H](CO)C(=O)N[C@@H]([C@@H](C)O)C(=O)N1)C(C)C)C(=O)N[C@@H](CO)C(=O)N[C@@H](CCC(N)=O)C(=O)N[C@@H](CCC(=O)O)C(=O)N[C@@H](CC(C)C)C(=O)N[C@@H](Cc1c[nH]cn1)C(=O)N[C@@H](CCCCN)C(=O)N[C@@H](CC(C)C)C(=O)N[C@@H](CCC(N)=O)C(=O)N[C@H](C(=O)N[C@@H](Cc1ccc(O)cc1)C(=O)N1CCC[C@H]1C(=O)N[C@@H](CCCNC(=N)N)C(=O)N[C@H](C(=O)N[C@@H](CC(N)=O)C(=O)N[C@H](C(=O)NCC(=O)N[C@@H](CO)C(=O)NCC(=O)N[C@H](C(=O)N1CCC[C@H]1C(N)=O)[C@@H](C)O)[C@@H](C)O)[C@@H](C)O)[C@@H](C)O [Salmon calcitonin-I, salmon calcitonin-I, reference compound] | 9.52 ± 0.19 mg/100 ml | 9.60 ± 0.25 mg/100 ml | 9.44 ± 0.19 mg/100 ml | 9.57 ± 0.18 mg/100 ml | 8.01 ± 0.23 mg/100 ml | 9.00 ± 0.28 mg/100 ml | 7.77 ± 0.02 mg/100 ml | 7.25 ± 0.14 mg/100 ml |  |  |  | 50% | 69.9% |
